Laboratory results: patent US20090258889A1, “PESTICIDAL COMPOSITIONS” (Whitmire Micro-Gen Research Laboratories, Inc., priority 2008, published 2009)

Test system: cockroaches
Assay: Dose-response mortality test with probit analysis to estimate LD50 and LD10 for cockroaches
Assay type: in vivo, cockroach
Settings: slope of dose-response mortality

| Structure (SMILES) | Slope (+/−SE) |
| --- | --- |
| CCCCCCO [Composition 1-hexanol, 1-hexanol] | 6.392 (0.869) |
| CCCCCCCO [Composition 1-heptanol, 1-heptanol] | 5.502 (0.951) |
| CCCCCCCCCCCO [Composition 1-undecanol, 1-undecanol] | 6.956 (1.013) |
| OCCc1ccccc1 [2-phenylethanol] | 3.628 (0.546) |
| CCCCCCCCO [Composition 1-octanol, 1-octanol] | 4.375 (0.720) |
| CCCO [Composition 1-propanol, 1-propanol] | 17.756 (2.034) |
| CC(C)CO [isobutyl alcohol] | 4.129 (0.452) |
| CCCCCCCCCCO [Composition 1-decanol, 1-decanol] | 6.931 (1.023) |
| CCO [Ethanol] | 10.037 (1.285) |
| CC(=O)CC(C)(C)O [Diacetone alcohol] | 4.617 (0.596) |
| CC(C)O [Isopropyl alcohol] | 5.370 (0.701) |
